PubChem BioAssay AID1508597 | Cure First | 2020
Shown is an unselected part of the about 2,100 reagents, under one of the conditions tested. 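Calls flag viability under 80% in either arm, not effects specific to rucaparib; the reference for percent is not stated.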 Some reagents were tested in more than one well and are listed for each. No sequences are given here. Not stated in the record: the 100% reference.

Assay: 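Survival screen with siRNA in ovarian cancer cells derived from patients, with or without rucaparib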 (primary screen)
Cells: human ovarian carcinoma lines grown from tumours: OCI-P5x (papillary serous) and OCI-C5x (clear cell)
Knock-down reagent: siRNA pool against human genes, 1.25 pmol siRNA per well
Timing: 72 h or 96 h, depending on the cell culture
Challenge: rucaparib 20 µM (about IC30) or vehicle, present until read-out
Rucaparib or vehicle: Vehicle
Cell line: OCI-P5x (serous)
Measurement: 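ATP luminescence measured at 72 or 96 h according to the culture, then normalised and expressed as percent viability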
Direction: viability, normalised: higher = more viable cells remaining
Rule for the call: 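a well counts as a hit if its normalised viability is under 80 percent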
Meaning of the calls: active = viability under 80%; inactive = viability 80% or more

Which result is listed for STK32C (GeneID 282974), technical replicate 1?
viability, normalised (%): 72.9; call: active

How did the screen score STK32C (GeneID 282974), technical replicate 2?
viability, normalised (%): 52.8; call: active

For STK32C (GeneID 282974), technical replicate 3, how do the results read?
viability, normalised (%): 51.7; call: active

For ITPKB (GeneID 3707), technical replicate 1, what does the deposit list?
viability, normalised (%): 72.8; call: active

With ITPKB (GeneID 3707), technical replicate 2, what was measured?
viability, normalised (%): 67.9; call: active

For ITPKB (GeneID 3707), technical replicate 3, how do the results read?
viability, normalised (%): 65.4; call: active

With PTTG1 (GeneID 9232), technical replicate 1, what was measured?
viability, normalised (%): 81.7; call: inactive

What is on record for PTTG1 (GeneID 9232), technical replicate 1?
viability, normalised (%): 69.2; call: active

With PTTG1 (GeneID 9232), technical replicate 2, what was measured?
viability, normalised (%): 93.2; call: inactive

With PTTG1 (GeneID 9232), technical replicate 2, what was measured?
viability, normalised (%): 52.6; call: active

How did the screen score PTTG1 (GeneID 9232), technical replicate 3?
viability, normalised (%): 62.4; call: active

For PTTG1 (GeneID 9232), technical replicate 3, what does the deposit list?
viability, normalised (%): 99; call: inactive

2 successive entries from above:
PTTG1 (GeneID 9232), technical replicate 1 | viability, normalised (%): 69.2; call: active
PTTG1 (GeneID 9232), technical replicate 2 | viability, normalised (%): 93.2; call: inactive

The listing continues.
For DDX1 (GeneID 1653), technical replicate 1, what does the deposit list?
viability, normalised (%): 56.7; call: active

Which result is listed for DDX1 (GeneID 1653), technical replicate 1?
viability, normalised (%): 57.9; call: active

Which result is listed for DDX1 (GeneID 1653), technical replicate 2?
viability, normalised (%): 55.1; call: active

What is on record for DDX1 (GeneID 1653), technical replicate 2?
viability, normalised (%): 63.6; call: active

With DDX1 (GeneID 1653), technical replicate 3, what does the deposit list?
viability, normalised (%): 55.4; call: active

What did the screen give for DDX1 (GeneID 1653), technical replicate 3?
viability, normalised (%): 70; call: active

How did the screen score ROR2 (GeneID 4920), technical replicate 1?
viability, normalised (%): 77.6; call: active

How did the screen score ROR2 (GeneID 4920), technical replicate 2?
viability, normalised (%): 66.1; call: active

With ROR2 (GeneID 4920), technical replicate 3, what does the deposit list?
viability, normalised (%): 88.9; call: inactive
